PubChem BioAssay AID1224830 | NIAID, 2016
In all, the deposit lists about 18,000 reagents; below is a random part of them. Over the whole deposit, about 2,900 (16%) are marked active. 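Calls are made per well; low scores hint the gene aids the LPS response, high scores that it dampens it.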 Unmarked entries are inactive. Repeated entries: four replicate wells of each siRNA pool.

- Test: 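Genes whose knock-down alters the TNF-alpha reporter response to LPS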 (primary screen)
- Cell system: human THP-1 monocytic leukaemia cells, TNF dual-luciferase reporter clone, PMA-differentiated to macrophage-like cells
- Reagent: siRNA pool against human genes, 50 nM
- Timing: LPS for 4 h, given about 3 days after siRNA transfection
- Challenge: bacterial LPS (TLR4 ligand), 10 ng/ml
- Detection: 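Ratio of firefly to renilla light, scaled to the plate median and expressed as a robust z-score per replicate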
- Reading the numbers: TNF reporter robust z-score: higher = stronger TNF reporter response to LPS
- Active means: 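Each well counts as active if its z-score is over 2.8 or under -1.5; controls are left without a call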

With knock-down of DMD (dystrophin) the results were TNF reporter robust z-score -0.17.
With knock-down of DMD (dystrophin), the screen gave TNF reporter robust z-score -0.44.
Silencing of DMD (dystrophin) resulted in: TNF reporter robust z-score -0.59.
For DMD (dystrophin), the entry reads TNF reporter robust z-score -0.54.
After knock-down of MUL1 (mitochondrial E3 ubiquitin protein ligase 1), the record shows TNF reporter robust z-score 1.49.
With knock-down of MUL1 (mitochondrial E3 ubiquitin protein ligase 1) the results were TNF reporter robust z-score -0.17.
Depletion of MUL1 (mitochondrial E3 ubiquitin protein ligase 1) came out at: TNF reporter robust z-score 1.56.
Knock-down of MUL1 (mitochondrial E3 ubiquitin protein ligase 1) gave: TNF reporter robust z-score 2.75.

Part of the list above, set out differently:
{"gene":"DMD (dystrophin)","TNF reporter robust z-score":-0.17}
{"gene":"DMD (dystrophin)","TNF reporter robust z-score":-0.44}

The results go on.
Knock-down of FBXO3 (F-box protein 3) gave: TNF reporter robust z-score -1.41.
Silencing of FBXO3 (F-box protein 3) resulted in: TNF reporter robust z-score 2.46.
FBXO3 (F-box protein 3) showed TNF reporter robust z-score -1.27.
With knock-down of FBXO3 (F-box protein 3), the screen gave TNF reporter robust z-score 0.52.
HSPA1L (heat shock protein family A (Hsp70) member 1 like) scored TNF reporter robust z-score 0.1.
With knock-down of HSPA1L (heat shock protein family A (Hsp70) member 1 like), the screen gave TNF reporter robust z-score -0.25.
Knock-down of HSPA1L (heat shock protein family A (Hsp70) member 1 like) gave: TNF reporter robust z-score -0.7.
HSPA1L (heat shock protein family A (Hsp70) member 1 like) scored TNF reporter robust z-score 0.54.
Against HCRT (hypocretin neuropeptide precursor) the deposit lists TNF reporter robust z-score 0.
Depletion of HCRT (hypocretin neuropeptide precursor) resulted in: TNF reporter robust z-score 0.55.
HCRT (hypocretin neuropeptide precursor) showed TNF reporter robust z-score 0.89.
Depletion of HCRT (hypocretin neuropeptide precursor) came out at: TNF reporter robust z-score 0.83.
